No constants are given. Whether binding was seen depends on the method and setting. Some binding calls cover weakened binding; strength is not graded here.

Amino acid sequences for entries named in this document (tags omitted). Residues count along the entry.
UniProt P03601, residues 26-190: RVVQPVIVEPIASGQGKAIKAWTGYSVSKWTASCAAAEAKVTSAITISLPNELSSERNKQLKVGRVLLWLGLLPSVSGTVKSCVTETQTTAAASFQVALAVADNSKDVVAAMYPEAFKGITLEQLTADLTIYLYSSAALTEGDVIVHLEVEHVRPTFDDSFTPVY

Assay [1] has as its target cowpea chlorotic mottle virus (CCMV) capsid protein, dimeric subunit (cowpea chlorotic mottle virus) (UniProt P03601). In words: time-resolved SAXS + cryo-TEM; subunits mixed with 600-kDa poly(styrene sulfonic acid) (PSS) at pH 7.5, final ionic strength 0.1 M, subunit-to-PSS mass ratio 8 (SAXS) or 6 (cryo-TEM); capsid shell forms around PSS; both purified.
Assay [2] has the same target. The experiment in a line: time-resolved SAXS + cryo-TEM; NPCs pre-assembled from subunits and genomic RNA (mass ratio 5.5) mixed with buffer bringing pH to 5.2 and ionic strength to 55 mM, 20 °C; capsid shell forms around the RNA genome; cryo-TEM after a few days of incubation; both purified.

In the case of “cowpea chlorotic mottle virus (CCMV) capsid protein, dimeric subunit (from UniProt P03601 26-190)”, the binding result in assay [1] and in assay [2] was “binds” each time.

(Values after publication PMC6078970, “Nonequilibrium self-assembly dynamics of icosahedral viral capsids packaging genome or polyelectrolyte” (Nature Communications, 2018).)
